For at least one compound, name, drawing or mass did not settle the structure.
Legend:
[1] = system: Lewis Lung Carcinoma (LLC) cells; test: LLC cell proliferation, MTS assay; assay type: cell-based; details: 2 days with trametinib
Brpkp110 tumors = test: Brpkp110 subcutaneous tumors in mice; assay type: in vivo
OT-I T cells = test: In vivo OT-I proliferation in ID8-OVA tumor-bearing mice; details: after 4 days; trametinib 1.0 mg/kg; ALT-803 0.2 mg/kg one dose
LLC tumors = LLC tumors in mice (intraperitoneal or subcutaneous); assay type: in vivo; details: gavage once daily day 4-14
Ly6C+ MDSCs = test: In vitro MDSC differentiation from mouse bone marrow; assay type: cell-based; details: trametinib 200 nM, 4 days
human T cells = test: ConA-induced activation and expansion of human T cells (high-throughput screen); assay type: cell-based; details: ConA-driven in vitro proliferation of human T cells

**Q.** `CC(=O)Nc1cccc(-n2c(=O)n(C3CC3)c(=O)c3c(Nc4ccc(I)cc4F)n(C)c(=O)c(C)c32)c1` [GSK1120212 (trametinib), trametinib] was tested. Which “sensitivity of LLC cells in vitro” value [1] did it give?
**A.** very sensitive

**Q.** What about the “tumor growth / anti-tumor activity in mice depleted of CD8α+ cells” value (Brpkp110 tumors; anti-CD8α vs irrelevant IgG) of the same compound?
**A.** significantly reduced

**Q.** What about the “mice remaining tumor free after 50 days, single treatment groups” value (Brpkp110 tumors; single treatment) of the same compound?
**A.** No mice

**Q.** And the “Ki-67 staining in Brpkp110 tumors in vivo” value (Brpkp110 tumors; trametinib 1.0 mg/kg days 7-9, tumors excised day 10)?
**A.** did not significantly reduce

**Q.** What about the “growth of Brpkp110 tumors” value (Brpkp110 tumors; trametinib 1.0 mg/kg oral gavage once daily days 3-13, ALT-803 0.2 mg/kg i.p. days 3, 8, 13) of the same compound?
**A.** significantly reduced

**Q.** What about the “proliferation of OT-I T cells in tumor microenvironment” value (OT-I T cells) of the same compound?
**A.** proliferated significantly less

**Q.** What about the “tumor progression, intraperitoneal LLC tumors” value (LLC tumors) of the same compound?
**A.** did not find a reduction

**Q.** And the “differentiation of Ly6C+ MDSCs from bone marrow in response to GM-CSF and IL-6” value (Ly6C+ MDSCs)?
**A.** dramatically impaired

**Q.** And the “activity on T cells (in words)” value (human T cells)?
**A.** quite potent
